Patent US20130217592A1, “ARRAYS AND METHODS COMPRISING M. SMITHII GENE PRODUCTS” (THE WASHINGTON UNIVERSITY, priority 2007, published 2013)
At least one compound was matched to its structure with a doubt left.

Assays:
M. smithii = details: 0.1% deoxycholic acid; cited from earlier work
[1] = system: M. smithii strains DSMZ 861 (PS), 2374 (F1), 2375 (ALI) and 11975 (B181); assay: Statin susceptibility of M. smithii strains in the PHAT system, 96-well plates, growth by optical density at 600 nm (all four strains); type: cell-based, Methanobrevibacter smithii; details: 1 millimolar, preliminary results
Experimental: A system for culturing M. smithii in 96-well plate format was designed and constructed in the following manner (See FIG. 15). Three stainless steel paint canisters (Binks, 83S-210, 2 gallon size) were modified for incubation of plates at 37° C. in an oxygen-free gas mix of 20% CO2/80% H2 at a pressure of 30 psi, where all of these growth parameters can be monitored and recorded. […]
The system is pressurized with oxygen-free gas that has flowed through a custom-built oxygen scrub. […] Pressure in each tank is measured and recorded with a digital manometer (LEO record, Omni Instruments).
The system is housed inside an anaerobic chamber (COY laboratories) to allow inspection and manipulation of cultures and plates without exposing M. smithii to oxygen. Each tank can house 30 standard volume 96-well plates, which can be analyzed inside the COY anaerobic chamber with a microplate reader (BioRad) that monitors growth by measuring optical density.
1.5 μl of the stock solutions were added to wells in 96-well plates and transferred to the COY anaerobic chamber where they were kept for at least 24 hours to become anaerobic. […] Growth was measured by determining optical density at 600 nm using the BioRad microplate reader (model 680). […]

Row | SMILES | inhibition of M. smithii in vitro (M. smithii) | inhibition of growth of M. smithii strains [1]
1 | C[C@H](CCC(=O)O)[C@H]1CC[C@H]2[C@@H]3CC[C@@H]4C[C@H](O)CC[C@]4(C)[C@H]3C[C@H](O)[C@]12C [deoxycholic acid] | not inhibited | 
2 | CC[C@H](C)C(=O)O[C@H]1C[C@H](O)C=C2C=C[C@H](C)[C@H](CC[C@@H](O)C[C@@H](O)CC(=O)O)[C@H]21 [pravastatin] |  | inhibit all strains tested
